# Data as given in paper doi:10.1101/2022.06.03.494746.
# B1: ECT4 (BiFC construct) (protein, UniProt A0A1P8AS03 1-605)
# chain: MSTVAPPADQAADVLKKLSLDSKSRTLEIPEPTKKTGVYQYGAMDSNGQVPSFDRSLSPMLPSDALDPSVFYVPNVYQQPYYYGYGSDYTGYTNSESVDMTSGAYGENASLVYPQGYGYAAFPYSPATSPAPQLGGDGQLYGAQQYQYPFPLTASSGPFASSVPASTQSKLSTNKAANSASAGIPKGMNGSAPVKPLNQSALYGNSALGGGLAAGYQDPRYSYDGFYTPVSWHDGSNFSDVQRSVSGSGVASSYSKANNNVPATRNQNSSSNSHYTSMYQPASMTGYAAQGYYDRVSPNKSYGQYGSTVRSGMGYGSSGYGSRTNERGWLNTDNKYRSRGRGNSYFYGNENIDGLNELNRGPRAKGTKATEEVSSEEVKKQTFDESNTEETVTCVLPDREECNRDDFPVEYKDAKFFIIKSYSEDDVHKSIKYNVWASTPNGNKKLDAAYQEAQQKSSGCPVFLFFSVNASGQFIGLAEMKGPVDFNKNIEYWQQDKWTGSFPLKWHILKDVPNSLLKHITLEYNENKPVTNSRDTQEVKLEQGLKVVKIFKEHNSKTCILDDFSFYEARQKTILEKKAKQQQSQKQVWEGKTNDEKPGTVDSTM
# B2: MLN51 (BiFC construct) (protein, UniProt Q93ZJ9 1-605)
# chain: MAPDGVEDSDYESDPDELNRSLATRRREASDDDEDDEEADDHDKLRAAIQIHSDEHSGVVVVDSDDNEGLHIEDSYGDDDDEEEDGDYGQVDDHVEYIADNNDKTIVAGNGTDDSAATDLVDGEEQKKKEPFAVPTAGAFYMHDDRFQELDAASNRRMRGGRRLWQSRDERKWGHDKFEEMNTQKQQYDRRTSRGRGRGRGQGRGQDRGQSRGNNSKEFTGNGHQNQFPKAVTRGRGARRYEVALRNGNQAPSVQTKQSQNSSVEVSHVDLGRPPTETATLETEAIQAKKNVFASSLNSASPPFYPSRSNNNLAQKDVQAGMGRLHINENPNPTGKKFGNTKSSSLWGRTAQTTSHGRGVPPHGQVLYQQSPNQGDKVSSPMQIRGMPKGTDQSCTQLPGQVFNQHSAVISLLPSSPPKTGSSENPYLSGEIESAVETGALVAKGKGSLQPSGRGSFMYGGTQFMGPAGMAAGHGNPNFPAFLPVMQFGGQHGGVPTFGMALPGYFQPEHGTGNPEMTWLPILAGPGALGGSYCPPYTVLDGSYQADKPGLPSSAGSSSQENSSNNPNDEEPMERPEVTNNGNSQRSNSNPNKQPRRYSEMSFSK
# B3: FLXL1 (BiFC construct) (protein, UniProt Q93V84 1-331)
# chain: MSGRNRGPPPPSMKGGSYSGLQAPVHQPPFVRGLGGGPVPPPPHPSMIDDSREPQFRVDARGLPPQFSILEDRLAAQNQDVQGLLADNQRLAATHVALKQELEVAQHELQRIMHYIDSLRAEEEIMMREMYDKSMRSEMELREVDAMRAEIQKIRADIKEFTSGRQELTSQVHLMTQDLARLTADLQQIPTLTAEIENTKQELQRARAAIDYEKKGYAENYEHGKIMEHKLVAMARELEKLRAEIANSETSAYANGPVGNPGGVAYGGGYGNPEAGYPVNPYQPNYTMNPAQTGVVGYYPPPYGPQAAWAGGYDPQQQQQQQPPPQGQGHR
# B4: VAP27-1 (BiFC construct) (protein, UniProt Q8VZ95 1-256)
# chain: MSNIDLIGMSNRDLIGMSNSELLTVEPLDLQFPFELKKQISCSLYLTNKTDNNVAFKVKTTNPKKYCVRPNTGVVLPRSTCEVLVTMQAQKEAPSDMQCKDKFLLQGVIASPGVTAKEVTPEMFSKEAGHRVEETKLRVTYVAPPRPPSPVHEGSEEGSSPRASVSDNGHGSEFSFERFIVDNKAGHQENTSEARALITKLTEEKQSAIQLNNRLQRELDQLRRESKKSQSGGIPFMYVLLVGLIGLILGYIMKRT
# B5: PAT1-GFP (protein, UniProt Q0WPK4 1-793)
# chain: MDAFGIGSSLNQAPVTQDLKKFGDNSTGNTMFDASQYAFFGNDVVEEVELGGLEEEDEILSFTGIAEDFSFDKEEVGDSRLLSDVDDLASTFSKLNREPDVYSNTGPITDRRSSQNSLAAEWTHGEELPNWYGRQILDSDAIKDDKVWSAQPFSSLDRVEQRIPDRTKLYPEPQRQLHQDHNQQQFSSEPILVPKSSFVSYPPPGSISPDQRLGHPNIPYQSGGPQMGSPNFSPFPNLQPQLPSMHHGSPQHTGNRPQFRPALPLNNLPPAQWMNRQNMHPGDSSGIMNNAMLQQPPHQNGLMPPQMQGSQNRLPHPMQPPLGHMPGMQPQLFNSHLSRSSSSGNYDGMLGFGDLREVRPGSGHGNRQNVRFPQQGFDAGVQRRYPFRSKYMSAGEIENILRMQLVATHSNDPYVDDYYHQACLAKKSAGAKLKHHFCPNHLRDLQQRARSNNEPHAFLQVEALGRVPFSSIRRPRPLLEVDPPNSAKFGNAEHKPTDKPLDQEPMLAARVYIEDGLCLLLEVDDIDRFLEFNQLQDGGHQLKQRRQALLQSLAVSLQLGDPLAKNGQSQSLDDFLFLRVISLPKGRKLLIRYLQLIFPGSDLMRIVCMAIFRHLRSLFGVLSSDPDIIKTTNKLATVINLCIQNMELGPVSTCLAAVSCSSEQAPLRPLGSPVGDGASTVLKSILDRASELIRANNFNNAGIALWRASFNEFFNMLMRYCISKYDSIMQSLQLPPHFATEISEEAAKAIVREMPIELLRSSFPHIDEQQKRILMEFLKRSMLGSQKTEPVLS
# B6: SCAR2-mCherry (protein, UniProt Q5XPJ9 1-1399)
# chain: MPLTRYQSRNEYGLADPDLYQAADKDDPEALLEGVAMAGLVGILRQLGDLAEFAAEMFHDLHEEVMATASRSHGLMARVQQLEAEFPSIEKALLCQTDHSPFFSNKGVEWHPNLQLEQSVVTSGDLPRCVMDSYEECRGPPRLFLLDKFDISGAGACLKRYTDPSFVRLETSSYEESWDDIQREKKSQKAKRRASQWRNGGTPENALSSHAKLHELFLEEHLEAHHSDPARVVKLKTRKLDGCSLISKSGESYMEKFVQTRVDSKISYEIITQNPGLLTWNMDSARDVVTDIPEISMVGAMDKSHGGSRAEVSFPSEQENVANVNMNGGFIEKDIETVPESTYNEVRGTTITQDSQTVLNGKPGFFQQRSYSEDLTSEADNYVDAPATMESETETDDECRPKSRSDTLKDGNHHIYSDAVEERMEDPPQFSFSHSNGNTPVSENGRSSFGKKSTSYSYSDTASISIDDQSDGEKLSGCLPSTSSFKSELVDSMSHVTPEANKVSHDLNVQESVSSSNVDGQTSLSSNGTCSSPRPVSQNDQSCSLTVQSLASEVVETSPELVRLDLMKGGNDGRKVDPFDSSKSCASFDAKNSDLPSETSSISSTSEGSRCDSTIEKNCMVASNLVNSGTSPQAFVDSQTGKQLPIADTDFETNSIVACSEVLANSGSDPEERDGRCLTGKLVPCSAGVGMEVSPDTPSKVCGPSSADGIHLKDTLDDETDCVSVTNVVVDVDSKNSVADVGSQSSVADIDSQSSVAEISDEHSCAFGNTADVSVSESHEDTLENGMSVPSDFNSGVEKLAGDASPTCSKCDDHISHEGFHDLSGLDNATTDIVPNVELDVSDNDNDTSSGGVNHAVSLSSTRGKGSLPWISTNTYQSSSDAGEIFHDTVVESDGTLLEDNNPESEIKMHKSPLEVSSEGLSTEPDNKDVESIESTSPKPSLDQRNRDTETKSPGESILDDNCIDSTQVYNLNLLESEAIDQAVREQTSYASHEVADEELLQSNVFRGLEFEPQSAGLEFAPQSAGIELNRPKQELNLDPTFPSFGFIPETIPPNPEDMPPLPPMQWLIGKVPHSFPTFMGESVETSSSALSAAPPIGSSLNVQIGSPPSELSVSLGSDESERLPGGFVHNASEKPLQSSIQFPTMSTDLNSQYDSSELPTIPYQECIEDFGSEENNLLADHAAQNHELVYSQASSLQLPQVKHEDFKDDADVHESQSSSDDHHCPETKSLTPTQSTKVEDKGHSVPDASNAETAESSNTSVQKINPVSVGDAMWPVSCFSVAPTLDTYKTEVVPTVRLPRPRSPLVDAVAAHDRRKMKKVSEMVHPPIKSKQDDKDSLLAQIRNKSVNLKPAVTTRPSIQTGPRTDLRVAAILEKANTIRMAMAGSDEDEDSDSWSDS
# B7: BRK1-mCherry (protein, UniProt Q94JY4 1-85)
# chain: MAKAGGITNAVNVGIAVQADWENREFISHISLNVRRLFEFLVQFESTTKSKLASLNEKLDLLERRLEMLEVQVSTATANPSLFAT
# B8: BRK1-YFP (protein, UniProt Q94JY4 1-85)
# chain: B7 chain
# B9: PIN7-GFP (protein, UniProt Q940Y5 1-619)
# chain: MITWHDLYTVLTAVIPLYVAMILAYGSVRWWKIFSPDQCSGINRFVAIFAVPLLSFHFISSNNPYAMNLRFIAADTLQKLIMLTLLIIWANFTRSGSLEWSITIFSLSTLPNTLVMGIPLLIAMYGEYSGSLMVQIVVLQCIIWYTLLLFLFEYRGAKILIMEQFPETGASIVSFKVESDVVSLDGHDFLETDAQIGDDGKLHVTVRKSNASRRSFYGGGGTNMTPRPSNLTGAEIYSLNTTPRGSNFNHSDFYSMMGFPGGRLSNFGPADMYSVQSSRGPTPRPSNFEESCAMASSPRFGYYPGGAPGSYPAPNPEFSTGNKTGSKAPKENHHHVGKSNSNDAKELHMFVWGSNGSPVSDRAGLQVDNGANEQVGKSDQGGAKEIRMLISDHTQNGENKAGPMNGDYGGEEESERVKEVPNGLHKLRCNSTAELNPKEAIETGETVPVKHMPPASVMTRLILIMVWRKLIRNPNTYSSLIGLIWALVAFRWDVAMPKIIQQSISILSDAGLGMAMFSLGLFMALQPKLIACGNSTATFAMAVRFFTGPAVMAVAAMAIGLRGDLLRVAIVQAALPQGIVPFVFAKEYNVHPAILSTGVIFGMLIALPITLVYYILLGL
# B10: SOK3-YFP (protein, UniProt Q8GYT8 1-540)
# chain: MEARMKKYSREVSPERAKVWTEKSPKYHQKIKKVQIVYYLSKNRQLEHPHFMEVLISSPNGLYLRDVIERLNVLRGRGMASMYSWSSKRSYRNGFVWHDLSEDDLILPANGNEYVLKGSELFDESNSDHFSPIVNLATQNMKQIVVEPPSSRSMDDSSSSSSMNNGKGTNKHSHEDDELSPPALRSVSSSGVSPDSRDAKNSSSWCLAEYKVYKSEGLADASTQTDETVSGRSKTPIETFSRGVSTDEDVSSEPETSENNLVSEASCAGKERESAEISRNSVSPPFSNSASSLGGKTDTLESLIRADVSKMNSFRILEQEDVRMPAIPRLRASNMLMQLISCGSISVKDNNFGLVPTYKPKFGHSKFPSPFFSSSFMMGDLDRLSETPSLMGLRMEEKEYFSGSLVETKLQKKDAADSNASLKRSSSYNGDRASNQMGVAENGDSKPDSSKNNPSSRKASSILGKQQPLVSEKRRDSSEDTTKNIPCTTKTHDACSKRITESLRKPDSFREDEERVIKIDERLASGARVRIESKVPSEEP
# Experiments:
# [1] = molecular target: cYFP-DCP1 (Arabidopsis); assay: split reporter
# [2] = molecular target: HF-mScarlet-DCP1 (Arabidopsis); assay: proximity ligation
# [3] = molecular target: HF-mScarlet-DCP1 (Arabidopsis); assay: FRET or BRET
# [4] = molecular target: DCP1-GFP (Arabidopsis); assay: FRET or BRET
# [5] = molecular target: DCP1^S237A-GFP (Arabidopsis); assay: FRET or BRET
# [6] = molecular target: DCP1-GFP (Arabidopsis); assay: proximity ligation
# [7] = molecular target: DCP1-GFP (Arabidopsis); assay: FRET or BRET; remark: listed apart in the source
binder,measurement,setting,value
B1,binding,[1],binds
B2,binding,[1],binds
B3,binding,[1],binds weakly
B4,binding,[1],binds
B5,binding,[2],binds
same,binding,[3],binds weakly
B6,binding,[4],binds
same,binding,[5],binds
same,binding,[6],binds
same,binding,[7],binds
B7,binding,[7],binds
B8,binding,[2],binds
B9,binding,[2],no binding
B10,binding,[2],no binding

# No constants are given. Whether binding was seen depends on the method and setting. Binding seen in cells or lysates may run through a third protein. Binding can be weak; no strength is given. For some assays here: Tags and fused reporters may be left off the sequences shown.
